Measurements reported in the supplement of paper PMC12819154, “High-throughput peptide-centric local stability assay extends protein–ligand identification to membrane proteins, tissues and bacteria” (Nature Structural & Molecular Biology, 2025).
This is one part of the list. Most values lie at the level of the controls, where differences are scatter.

Protein sequences, listed by entry. Tags and fused reporters are not part of them. Lines headed by an entry give the natural chain unless they say otherwise; changes in a name come on top.
UniProt Q9JIL4: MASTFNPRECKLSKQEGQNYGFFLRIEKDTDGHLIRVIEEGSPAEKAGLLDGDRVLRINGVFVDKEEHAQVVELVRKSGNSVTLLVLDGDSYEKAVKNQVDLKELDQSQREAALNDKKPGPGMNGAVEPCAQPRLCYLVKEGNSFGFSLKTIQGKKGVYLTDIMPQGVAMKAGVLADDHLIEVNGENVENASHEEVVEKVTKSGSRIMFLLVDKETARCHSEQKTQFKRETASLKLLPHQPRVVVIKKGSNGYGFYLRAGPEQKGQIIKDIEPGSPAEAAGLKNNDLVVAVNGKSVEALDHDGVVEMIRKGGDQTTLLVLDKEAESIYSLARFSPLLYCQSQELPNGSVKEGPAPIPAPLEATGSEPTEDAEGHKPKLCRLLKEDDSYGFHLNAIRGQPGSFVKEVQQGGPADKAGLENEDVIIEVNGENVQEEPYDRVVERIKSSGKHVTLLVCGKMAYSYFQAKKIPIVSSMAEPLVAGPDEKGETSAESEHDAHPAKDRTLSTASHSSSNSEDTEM
UniProt Q9JJN5: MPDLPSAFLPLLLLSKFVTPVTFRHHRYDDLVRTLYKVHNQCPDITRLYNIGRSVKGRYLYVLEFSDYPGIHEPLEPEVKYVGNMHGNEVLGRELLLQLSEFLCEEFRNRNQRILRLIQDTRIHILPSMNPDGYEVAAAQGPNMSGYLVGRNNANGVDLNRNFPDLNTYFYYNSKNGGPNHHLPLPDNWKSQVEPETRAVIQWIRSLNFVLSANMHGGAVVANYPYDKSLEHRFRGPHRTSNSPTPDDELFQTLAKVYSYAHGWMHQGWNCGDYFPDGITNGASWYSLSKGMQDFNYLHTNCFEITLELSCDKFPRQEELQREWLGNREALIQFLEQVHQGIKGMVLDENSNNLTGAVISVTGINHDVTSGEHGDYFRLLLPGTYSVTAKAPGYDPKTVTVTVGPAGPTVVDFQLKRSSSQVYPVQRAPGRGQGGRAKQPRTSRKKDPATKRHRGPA
UniProt Q9JHH6: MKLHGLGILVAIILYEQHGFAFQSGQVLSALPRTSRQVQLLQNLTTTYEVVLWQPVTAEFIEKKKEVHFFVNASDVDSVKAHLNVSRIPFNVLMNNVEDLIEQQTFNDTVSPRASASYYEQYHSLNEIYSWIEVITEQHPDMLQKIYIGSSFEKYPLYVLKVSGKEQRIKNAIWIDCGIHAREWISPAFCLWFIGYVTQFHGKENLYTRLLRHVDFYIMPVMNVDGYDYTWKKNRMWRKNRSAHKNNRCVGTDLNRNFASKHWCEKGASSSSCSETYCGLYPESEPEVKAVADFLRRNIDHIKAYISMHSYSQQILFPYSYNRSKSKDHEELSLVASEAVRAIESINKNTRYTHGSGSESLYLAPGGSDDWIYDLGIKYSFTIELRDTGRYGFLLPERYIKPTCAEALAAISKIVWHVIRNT
UniProt Q9JJX7: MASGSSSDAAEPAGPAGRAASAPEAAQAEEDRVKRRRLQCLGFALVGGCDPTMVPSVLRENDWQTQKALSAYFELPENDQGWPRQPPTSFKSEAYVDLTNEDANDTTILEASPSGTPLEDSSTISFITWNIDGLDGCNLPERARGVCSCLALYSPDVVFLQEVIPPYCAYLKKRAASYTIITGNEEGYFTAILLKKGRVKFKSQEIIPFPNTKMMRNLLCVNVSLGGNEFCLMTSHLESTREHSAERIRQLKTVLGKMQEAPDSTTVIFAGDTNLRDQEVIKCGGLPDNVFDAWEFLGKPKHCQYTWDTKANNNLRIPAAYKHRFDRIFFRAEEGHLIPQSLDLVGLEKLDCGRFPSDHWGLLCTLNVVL
UniProt Q9JI90: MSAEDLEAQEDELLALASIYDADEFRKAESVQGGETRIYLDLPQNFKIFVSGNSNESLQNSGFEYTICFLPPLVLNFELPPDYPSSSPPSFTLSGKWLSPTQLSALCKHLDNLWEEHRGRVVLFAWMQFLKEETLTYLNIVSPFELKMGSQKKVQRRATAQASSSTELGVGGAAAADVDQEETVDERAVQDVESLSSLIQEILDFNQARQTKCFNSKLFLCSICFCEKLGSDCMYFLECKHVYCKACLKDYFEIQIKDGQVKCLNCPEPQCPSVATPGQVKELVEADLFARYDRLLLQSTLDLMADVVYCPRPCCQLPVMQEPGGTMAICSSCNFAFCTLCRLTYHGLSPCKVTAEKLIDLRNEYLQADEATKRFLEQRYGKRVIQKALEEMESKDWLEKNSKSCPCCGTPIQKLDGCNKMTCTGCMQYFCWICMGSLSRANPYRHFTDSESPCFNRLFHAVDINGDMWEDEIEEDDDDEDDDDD

Compound: CN[C@@H]1C[C@H]2O[C@@](C)([C@@H]1OC)n1c3ccccc3c3c4c(c5c6ccccc6n2c5c31)C(=O)NC4 [staurosporine]
Assay: log2 fold change of tryptic peptide abundance, ligand vs vehicle (limited proteolysis) (log2 ratio); higher = more trypsin-susceptible (destabilized)
Conditions: ligand concentration: 20 uM; sample: mouse liver crude lysate; replicate design: treated separately

Row | Target | log2 fold change
1 | UniProt Q9JIL4 (peptide sequence: KGVYLTDIMPQGVAMK, peptide start residue: 156) | -0.292
2 | UniProt Q9JJN5 (peptide sequence: AVIQWIR, peptide start residue: 199) | 0.12
3 | UniProt Q9JHH6 (peptide sequence: YGFLLPER, peptide start residue: 391) | 0.288
4 | UniProt Q9JJX7 (peptide sequence: AEEGHLIPQSLDLVGLEK, peptide start residue: 332) | 0.363
5 | UniProt Q9JI90 (peptide sequence: AESVQGGETR, peptide start residue: 28) | -0.437
